{
  "source": "the supplement of paper PMC9578143",
  "about": "“Small-Molecule Ebselen Binds to YTHDF Proteins Interfering with the Recognition of N^6-Methyladenosine-Modified RNAs” (ACS Pharmacology & Translational Science, 2022)",
  "note": "The other results are listed elsewhere or left out. Plates or batches differ in their baseline, so values are only roughly comparable.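 Hits were defined as a z-score below −3.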",
  "data": [
    {"biological_target": "T1, YTHDF1 YTH domain (aa 365-554) (UniProt Q9BYJ9)", "T1 sequence (whole entry)": "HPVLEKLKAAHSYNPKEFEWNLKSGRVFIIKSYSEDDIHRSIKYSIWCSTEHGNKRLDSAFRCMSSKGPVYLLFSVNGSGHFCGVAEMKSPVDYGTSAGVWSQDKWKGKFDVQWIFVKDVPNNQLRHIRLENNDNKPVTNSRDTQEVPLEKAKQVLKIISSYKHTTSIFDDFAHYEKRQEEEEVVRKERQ", "assay": "tryptophan fluorescence intensity z-score (mean); higher = higher fluorescence, less quenching (negative = binding / quenching)", "conditions": "10 µM", "values": [
      {"smiles": "COc1cc(OC)c(-c2c(OC)cc(OC)cc2OC)c(OC)c1", "note": "(plate: M 17-18)", "tryptophan fluorescence intensity z-score": "inactive: 0.127"},
      {"smiles": "CCc1oc2ccccc2c1C(=O)c1cc(Br)c(O)c(Br)c1", "note": "(plate: M 11-12)", "tryptophan fluorescence intensity z-score": "inactive: -0.706"},
      {"smiles": "CC/C(=C(\\c1ccccc1)c1ccc(OCCN(C)C)cc1)c1ccccc1", "note": "(plate: M 5-6)", "tryptophan fluorescence intensity z-score": "inactive: 0.162"},
      {"smiles": "COc1cc2oc3cc(OC)c(OC)c(CC=C(C)C)c3c(=O)c2c(OC)c1CC=C(C)C", "note": "(plate: M 21-22)", "tryptophan fluorescence intensity z-score": "inactive: -0.11"},
      {"smiles": "CN[C@@H]1[C@H](O[C@H]2[C@H](O[C@H]3[C@H](O)[C@@H](O)[C@H](NC(=N)N)[C@@H](O)[C@@H]3NC(=N)N)O[C@@H](C)[C@]2(O)CO)O[C@@H](CO)[C@H](O)[C@H]1O", "note": "(plate: M 1-2)", "tryptophan fluorescence intensity z-score": "inactive: 0.348"},
      {"smiles": "NCc1ccc(S(N)(=O)=O)cc1", "note": "(plate: M 3-4)", "tryptophan fluorescence intensity z-score": "inactive: -0.046"},
      {"smiles": "O=C(O)C1(C(=O)O)CCC1.[NH2-].[NH2-].[Pt+2]", "note": "(plate: M 7-8)", "tryptophan fluorescence intensity z-score": "inactive: 0.431"},
      {"smiles": "O=c1c(O)c(-c2ccc(O)c(O)c2)oc2cc(O)cc(O)c12", "note": "(plate: M 17-18)", "tryptophan fluorescence intensity z-score": "inactive: -0.583"},
      {"smiles": "CC1=C(C/C=C(\\C)CCC[C@H](C)CCC[C@H](C)CCCC(C)C)C(=O)c2ccccc2C1=O", "note": "(plate: M 13-14)", "tryptophan fluorescence intensity z-score": "inactive: 0.435"},
      {"smiles": "COCCc1ccc(OCC(O)CNC(C)C)cc1", "note": "(stereo not given) (plate: M 3-4)", "tryptophan fluorescence intensity z-score": "inactive: 0.0503"},
      {"smiles": "COc1ccc(C(=O)c2ccccc2O)c(O)c1", "note": "(plate: M 1-2)", "tryptophan fluorescence intensity z-score": "inactive: -0.569"},
      {"smiles": "CC(C)Cc1ccc(C(C)C(=O)O)cc1", "note": "(stereo not given) (plate: M 3-4)", "tryptophan fluorescence intensity z-score": "inactive: 0.0328"},
      {"smiles": "COC1=CC(=O)C=C(OC)C1=O", "note": "(plate: M 15-16)", "tryptophan fluorescence intensity z-score": "inactive: 0.111"},
      {"smiles": "CC(O)(P(=O)(O)O)P(=O)(O)O", "note": "(plate: M 11-12)", "tryptophan fluorescence intensity z-score": "inactive: 0.288"},
      {"smiles": "CC(=O)O[C@H]1C[C@@H](OC(C)=O)C(C)(C)[C@@H]2C[C@@H](OC(C)=O)[C@@]3(C)C4=CC(=O)O[C@@H](c5ccoc5)[C@]4(C)CC[C@@H]3[C@@]12C", "note": "(plate: M 13-14)", "tryptophan fluorescence intensity z-score": "inactive: 0.339"},
      {"smiles": "O=C1[C@H](CC[C@H](O)c2ccc(F)cc2)[C@@H](c2ccc(O)cc2)N1c1ccc(F)cc1", "note": "(plate: M 9-10)", "tryptophan fluorescence intensity z-score": "inactive: 0.0819"},
      {"smiles": "Cc1cnc(C(=O)NCCc2ccc(S(=O)(=O)NC(=O)NC3CCCCC3)cc2)cn1", "note": "(plate: M 11-12)", "tryptophan fluorescence intensity z-score": "inactive: -0.72"},
      {"smiles": "C=C1C2CC[C@@]3(C)[C@H](c4ccoc4)OC(=O)C[C@]13O[C@H]1CC(=O)C(C)(C)[C@H](C(O)C(=O)OC)[C@@]21C", "note": "(stereo not given in full) (plate: M 13-14)", "tryptophan fluorescence intensity z-score": "inactive: 0.805"},
      {"smiles": "CCc1ccc2c(O)c3c(cc2c1C(=O)OC)C(=O)c1c(O)ccc(O)c1C3=O", "note": "(plate: M 15-16)", "tryptophan fluorescence intensity z-score": "inactive: 0.528"},
      {"smiles": "CN1CCC(=C2c3ccccc3CCc3sccc32)CC1", "note": "(plate: M 9-10)", "tryptophan fluorescence intensity z-score": "inactive: -0.931"},
      {"smiles": "CN1CCOC(c2ccccc2)c2ccccc2C1", "note": "(stereo not given) (plate: M 7-8)", "tryptophan fluorescence intensity z-score": "inactive: 0.462"},
      {"smiles": "N=C(N)NCCCCN", "note": "(plate: M 19-20)", "tryptophan fluorescence intensity z-score": "inactive: 0.469"},
      {"smiles": "CCCCNc1ccc(C(=O)OCCN(C)C)cc1", "note": "(plate: M 5-6)", "tryptophan fluorescence intensity z-score": "inactive: 0.0189"},
      {"smiles": "CC1(C)CC[C@]2(C(=O)O)CC[C@]3(C)C(=CCC4[C@@]5(C)CC[C@@H](O)C(C)(C)C5CC[C@]43C)C2C1", "note": "(stereo not given in full) (plate: M 13-14)", "tryptophan fluorescence intensity z-score": "inactive: 0.135"},
      {"smiles": "CCN(CC)CCOc1ccc(C(=C(Cl)c2ccccc2)c2ccccc2)cc1", "note": "(plate: M 1-2)", "tryptophan fluorescence intensity z-score": "inactive: -0.0283"},
      {"smiles": "COc1c2ccoc2cc2oc(=O)ccc12", "note": "(plate: M 17-18)", "tryptophan fluorescence intensity z-score": "inactive: 0.203"},
      {"smiles": "CN(C)CCOC(c1ccc(Cl)cc1)c1ccccn1", "note": "(stereo not given) (plate: M 1-2)", "tryptophan fluorescence intensity z-score": "inactive: 0.353"},
      {"smiles": "O=C1CCc2ccc(OCCCCN3CCN(c4cccc(Cl)c4Cl)CC3)cc2N1", "note": "(plate: M 11-12)", "tryptophan fluorescence intensity z-score": "inactive: -0.137"},
      {"smiles": "C[C@@H]1CC[C@@]23CCC4(C)[C@@](C=CC5[C@@]6(C)CCC(=O)C(C)(C)C6CC[C@]54C)(OC2=O)C3[C@H]1C", "note": "(stereo not given in full) (plate: M 17-18)", "tryptophan fluorescence intensity z-score": "inactive: 0.251"},
      {"smiles": "NC(=O)NC1NC(=O)NC1=O", "note": "(stereo not given) (plate: M 5-6)", "tryptophan fluorescence intensity z-score": "inactive: 0.213"},
      {"smiles": "O=C1C(O)=C([C@H]2CC[C@H](c3ccc(Cl)cc3)CC2)C(=O)c2ccccc21", "note": "(plate: M 9-10)", "tryptophan fluorescence intensity z-score": "inactive: -0.0505"},
      {"smiles": "CC(=O)OC(C)(C)[C@@H]1Cc2cc3ccc(=O)oc3cc2O1", "note": "(plate: M 19-20)", "tryptophan fluorescence intensity z-score": "inactive: 0.304"},
      {"smiles": "Cc1ccccc1C(OCCN(C)C)c1ccccc1", "note": "(stereo not given) (plate: M 3-4)", "tryptophan fluorescence intensity z-score": "inactive: -0.187"},
      {"smiles": "CC(C)=CCc1c2c(c3occ(-c4ccc(O)cc4)c(=O)c3c1O)C=CC(C)(C)O2", "note": "(plate: M 15-16)", "tryptophan fluorescence intensity z-score": "inactive: 0.856"},
      {"smiles": "COC(=O)C1=C(C)NC(C)=C(C(=O)OCCN(C)Cc2ccccc2)C1c1cccc([N+](=O)[O-])c1", "note": "(stereo not given) (plate: M 13-14)", "tryptophan fluorescence intensity z-score": "inactive: 0.455"},
      {"smiles": "O=c1cc(-c2ccc(O)cc2)oc2cc(O)ccc12", "note": "(plate: M 17-18)", "tryptophan fluorescence intensity z-score": "inactive: -0.129"},
      {"smiles": "COC(=O)C1=C(C)NC(C)=C(C(=O)OCC(C)C)C1c1ccccc1[N+](=O)[O-]", "note": "(stereo not given) (plate: M 11-12)", "tryptophan fluorescence intensity z-score": "inactive: -0.413"},
      {"smiles": "CNCCCN1c2ccccc2CCc2ccccc21", "note": "(plate: M 1-2)", "tryptophan fluorescence intensity z-score": "inactive: 0.294"},
      {"smiles": "O=C(O)[C@]1(O)C[C@@H](O)[C@@H](O)[C@H](O)C1", "note": "(plate: M 17-18)", "tryptophan fluorescence intensity z-score": "inactive: 0.47"},
      {"smiles": "CC[n+]1c(-c2ccccc2)c2cc(N)ccc2c2ccc(N)cc21", "note": "(plate: M 21-22)", "tryptophan fluorescence intensity z-score": "inactive: -0.537"},
      {"smiles": "C[n+]1ccccc1C=NO", "note": "(plate: M 21-22)", "tryptophan fluorescence intensity z-score": "inactive: 0.0331"},
      {"smiles": "C=CCSCC=C", "note": "(plate: M 21-22)", "tryptophan fluorescence intensity z-score": "inactive: 0.67"},
      {"smiles": "CC(N)C(=O)OC(C)(C)Cc1ccc(Cl)cc1", "note": "(stereo not given) (plate: M 9-10)", "tryptophan fluorescence intensity z-score": "inactive: 0.243"},
      {"smiles": "COc1ccc(/C=C/C(=O)c2cc(O)ccc2O)cc1", "note": "(plate: M 19-20)", "tryptophan fluorescence intensity z-score": "inactive: 0.121"},
      {"smiles": "CCC(C)n1ncn(-c2ccc(N3CCN(c4ccc(OCC5COC(Cn6cncn6)(c6ccc(Cl)cc6Cl)O5)cc4)CC3)cc2)c1=O", "note": "(stereo not given) (plate: M 11-12)", "tryptophan fluorescence intensity z-score": "inactive: 0.471"}
    ]}
  ]
}
